Data: publication PMC10297445

B1: DEAD (Asp-Glu-Ala-Asp) box polypeptide 21 (enzyme, UniProt Q9JIK5 1-851)
chain: MPGKLRSGAKLGSDGAEESMETLPKPSEKKTRKEKTKSKTEEATEGMEEAVSSKAKKTNKKGPSEDDVDPPKSRKAKKQEEEPQDDTASTSKTSKKKKEPLEKQADSETKEIITEEPSEEEADMPKPKKMKKGKEANGDAGEKSPKLKNGLSQPSEEEADIPKPKKMKKGKEANGDAGEKSPKLKNGLSQPSEEEVDIPKPKKMKKGKEASGDAGEKSPRLKDGLSQPSEPKSNSSDAPGEESSSETEKEIPVEQKEGAFSNFPISEETVKLLKARGVNFLFPIQAKTFHHVYSGKDLIAQARTGTGKTFSFAIPLIEKLQGGLQERKRGRAPQVLVLAPTRELANQVSKDFSDITKKLSVACFYGGTPYGGQIERMRSGIDILVGTPGRIKDHLQNGKLDLTKLKHVVLDEVDQMLDMGFADQVEEILCVAYKKDSEDNPQTLLFSATCPHWVFNVAKKYMKSTYEQVDLIGKKTQKAAITVEHLAIKCHWTERAAVIGDVIRVYSGHQGRTIIFCETKKDAQELSQNTCIKQDAQSLHGDIPQKQREITLKGFRNGNFGVLVATNVAARGLDIPEVDLVVQSCPPKDVESYIHRSGRTGRAGRTGVCICFYQNKEEYQLAQVEQKAGIKFKRIGVPSATEIIKASSKDAIRLLDSVPPTAISHFKQSAEKLIEEKGAVEALAAALAHISGATSVDQRSLINSQAGFVTMILRCSIEMPNISYAWKELKEQLGESIDAKVKGMVFLKGKLGVCFDVRTEAVTEIQEKWHDSRRWQLTVATEQPELEGPPDGYRGRMGQRDGSRGAFRGQRGGSRNFRGQGQRGGSRNFRGQRPGGGNRGQKRSFSKAFGQ
B2: O-acyltransferase (enzyme, UniProt Q61263 1-540)
chain: MSLRNRLSKSGENPEQDEAQKNFMDTYRNGHITMKQLIAKKRLLAAEAEELKPLFMKEVGCHFDDFVTNLIEKSASLDNGGCALTTFSILEEMKKNHRAKDLRAPPEQGKIFISRQSLLDELFEVDHIRTIYHMFIALLILFVLSTIVVDYIDEGRLVLEFNLLAYAFGKFPTVIWTWWAMFLSTLSIPYFLFQRWAHGYSKSSHPLIYSLVHGLLFLVFQLGVLGFVPTYVVLAYTLPPASRFILILEQIRLIMKAHSFVRENIPRVLNAAKEKSSKDPLPTVNQYLYFLFAPTLIYRDNYPRTPTVRWGYVAMQFLQVFGCLFYVYYIFERLCAPLFRNIKQEPFSARVLVLCVFNSILPGVLILFLSFFAFLHCWLNAFAEMLRFGDRMFYKDWWNSTSYSNYYRTWNVVVHDWLYYYVYKDLLWFFSKRFKSAAMLAVFALSAVVHEYALAICLSYFYPVLFVLFMFFGMAFNFIVNDSRKRPIWNIMVWASLFLGYGLILCFYSQEWYARQHCPLKNPTFLDYVRPRTWTCRYVF
B3: Isoform 2 of splicing factor 3B subunit 3 (protein, UniProt Q921M3-2 1-1122)
chain: MFLYNLTLQRATGISFAIHGNFSGTKQQEIVVSRGKILELLRPDPNTGKVHTLLTVEVFGVIRSLMAFRLTGGTKDYIVVGSDSGRIVILEYQPSKNMFEKIHQETFGKSGCRRIVPGQFLAVDPKGRAVMISAIEKQKLVYILNRDAAARLTISSPLEAHKANTLVYHVVGVDVGFENPMFACLEMDYEEADNDPTGEAAANTQQTLTFYELDLGLNHVVRKYSEPLEEHGNFLITVPGGSDGPSGVLICSENYITYKNFGDQPDIRCPIPRRRNDLDDPERGMIFVCSATHKTKSMFFFLAQTEQGDIFKITLETDEDMVTEIRLKYFDTVPVAAAMCVLKTGFLFVASEFGNHYLYQIAHLGDDDEEPEFSSAMPLEEGDTFFFQPRPLKNLVLVDELDSLSPILFCQIADLANEDTPQLYVACGRGPRSSLRVLRHGLEVSEMAVSELPGNPNAVWTVRRHIEDEFDAYIIVSFVNATLVLSIGETVEEVTDSGFLGTTPTLSCSLLGDDALVQVYPDGIRHIRADKRVNEWKTPGKKTIVKCAVNQRQVVIALTGGELVYFEMDPSGQLNEYTERKEMSADVVCMSLANVPPGEQRSRFLAVGLVDNTVRIISLDPSDCLQPLSMQALPAQPESLCIVEMGGTEKQDELGERGSIGFLYLNIGLQNGVLLRTVLDPVTGDLSDTRTRYLGSRPVKLFRVRMQGQEAVLAMSSRSWLSYSYQSRFHLTPLSYETLEFASGFASEQCPEGIVAISTNTLRILALEKLGAVFNQVAFPLQYTPRKFVIHPESNNLIIIETDHNAYTEATKAQRKQQILSPRSVAGGFVYTYKLVNNGEKLEFLHKTPVEEVPAAIAPFQGRVLIGVGKLLRVYDLGKKKLLRKCENKHIANYISGIQTIGHRVIVSDVQESFIWVRYKRNENQLIIFADDTYPRWVTTASLLDYDTVAGADKFGNICVVRLPPNTNDEVDEDPTGNKALWDRGLLNGASQKAEVIMNYHVGETVLSLQKTTLIPGGSESLVYTTLSGGIGILVPFTSHEDHDFFQHVEMHLRSEHPPLCGRDHLSFRSYYFPVKNVIDGDLCEQFNSMEPNKQKNVSEELDRTPPEVSKKLEDIRTRYAF

The binders below were run against T1, cMyc-A2AR^284–410 (C-terminus of mouse adenosine A2A receptor tagged with cMyc epitope) (mouse) (UniProt Q60613) (assay: affinity purification with mass spectrometry; co-IP of cMyc-A2AR^284–410 with 1 µg anti-cMyc antibody (isotype control IgG1 in parallel) from 500 µg protein extract of transfected RAW 264.7 cells in RIPA buffer diluted with PBS, overnight at 4 °C; SDS-PAGE, trypsin digest, MALDI-TOF mass spectrometry).
T1 sequence: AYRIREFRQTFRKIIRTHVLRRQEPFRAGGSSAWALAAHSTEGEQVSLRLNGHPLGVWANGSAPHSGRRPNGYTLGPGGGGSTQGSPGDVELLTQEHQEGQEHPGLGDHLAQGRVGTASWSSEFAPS
B1 was tested, and the binding was “binds”.
B2 was tested, and the binding was “binds”.
B3 was tested, and the binding was “binds”.

The binders below were run against T2, GST-A2AR^284–410 (C-terminus of mouse adenosine A2A receptor fused to GST) (mouse) (UniProt Q60613) (assay: affinity purification with mass spectrometry; pull-down: 20 µg MagneGST-bound GST-A2AR^284–410 (GST alone in parallel) incubated with 500 µg mouse peritoneal macrophage (IPMФ) lysate overnight at 4 °C; SDS-PAGE, trypsin digest, MALDI-TOF mass spectrometry; only the target purified).
T2 sequence: T1 sequence
B1 was tested, and the binding was “binds”.
In the case of B2, the binding is reported as “binds”.
With B3 the binding was “binds”.

These are yes or no findings as the source states them, for the method shown. Binding seen in cells or lysates may run through a third protein. Here binding means that the protein was enriched with, or labelled near, the bait; the list need not be complete. Sequences can lack the tags named with a protein.
